Data source: PubChem BioAssay AID1259328 (Drosophila RNAi Screening Center, 2017)
Test: 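Metal-linked candidate genes that shift zinc chloride toxicity in S2R+ cells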. System: Drosophila S2R+ cells. Reagent: long dsRNA against Drosophila genes. Time to read-out: 5 days (4 days knock-down, then 1 day metal). Treatment: zinc chloride added to 15 mM final for 1 day. Read-out: 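Luminescent measure of cellular ATP after 4 days of knock-down then 1 day in 15 mM zinc chloride, given as z-scores averaged across copies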. Direction: ATP z-score, averaged: higher = more ATP, more viable cells under zinc. Call rule: 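a gene counts as active if its set 1 mean z-score lies outside the range -1.5 to 1.5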.
Shown is an unselected part of 95 reagents tested. 6 of all reagents (6.3%) were called active. 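Only two distinct z-score sets exist; calls follow set 1, and set 2 holds one inactive gene scoring above 1.5.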 Entries without a mark were called inactive. Names joined by + are all predicted targets of the reagent. Further read-outs or replicates are left out here. The record does not give: the amount of reagent.

ATP z-score, averaged, set 1, by gene and reagent
MFS10: DRSC26960 -0.561; DRSC36116 -0.326
CG16890 + p38b: DRSC36755 -0.365
Vha16-1: DRSC05020 0.618; DRSC32229 0.0444
Rbcn-3A: DRSC18314 0.491; DRSC28199 -0.0301
Orct: DRSC16777 -0.436; DRSC25574 -0.526
CG6006: DRSC13137 -0.475; DRSC15946 0.101
VhaSFD: DRSC03471 1.03; DRSC32234 0.313; DRSC32235 0.562
Vha68-2: DRSC28637 0.571; DRSC31692 0.85
Atox1: DRSC22416 -0.0763
Sod1: DRSC11286 -0.176; DRSC40766 -0.142
Vha44: DRSC24506 0.596; DRSC32230 -0.345
MFS14: DRSC06524 0.012; DRSC39753 1.16
ZnT63C: DRSC23528 -0.57; DRSC37698 -0.294
Sod2: DRSC07554 -0.0283; DRSC27050 -0.427
Catsup: DRSC03288 -0.324; DRSC25727 -0.373; DRSC40427 -0.308
Lnk: DRSC16729 -0.528; DRSC31005 -0.41
Ctr1A: DRSC40310 0.285; DRSC40902 0.605
ZnT86D: DRSC16091 -0.625; DRSC40064 0.657
Zip102B: DRSC17155 0.563; DRSC39247 -0.274
Mvl: DRSC16752 -0.308; DRSC39671 1.2
MtnA: DRSC21588 -0.388
SERCA: DRSC04600 -0.0896; DRSC26195 0.0749
p38a: DRSC36706 -0.139; DRSC37322 -0.189
Sac1: DRSC34470 -0.437; DRSC34471 -0.357
Cdc50: DRSC20224 -0.0609
anne: DRSC29952 4.21 (active); DRSC40853 4.86 (active)
CG6126: DRSC15971 -0.385; DRSC39462 -0.509
iPLA2-VIA: DRSC10699 0.0514; DRSC37171 -0.256
CG7536: DRSC20050 -0.477; DRSC39596 -0.317
eEF1gamma: DRSC23655 -0.638; DRSC35716 -0.248
